From patent US9393186B2 (Lipotec, S.A., priority 2006, dated 2016)
Square brackets hold non-standard residues; d marks the D form. Cit = NC(=O)NCCC[C@H](N)C(=O)O

Experiment: general procedure: Fmoc solid-phase peptide synthesis; Fmoc-AM-MBHA
Conditions: whole synthesis, gradient 5 to 95% MeCN (+0.07% TFA) in H2O (+0.1% TFA), scale 0.5 mmol

H-KDV[Cit]-NH2
crude HPLC purity: greater than 70%
